# Laboratory results from patent publication US8222392B2, “Kit for detection of telomerase reverse transcriptase nucleic acids” (Geron Corporation, priority 1997, dated 2012).
# Some of these results come from one statement about several compounds together. Some ranges recur; such a range may be that of the whole group of compounds.
# Test system: telomerase
# Assay: TRAP assay of telomerase activity in ACHN or 293 cells treated with phosphorothioate antisense oligonucleotides
# Type: cell-based, human
# Settings: ACHN cells or 293 cells, 10 μM, treated for three days
row,Substance,inhibition of telomerase activity (compared to control untreated cells)
1,"5′-GGCATCGCGGGGGTG GCCGGGGCCAGGGCT-3′ (antisense GGCATCGCGGGGGTGGCCGGGGCCAGGGCT; all phosphorothioate, sugars by position and methylation of C not given here) [SEQ ID NO:722, phosphorothioate antisense oligonucleotide, nucleotide positions 31-60 of hTRT]",50%-90%
2,"5′-GCCCGTTCGCATCCCAGACGCCTTCGGGGT-3′ (all phosphorothioate, sugars by position and methylation of C not given here) [SEQ ID NO:724, phosphorothioate antisense oligonucleotide, positions 631-660 of hTRT]",50%-90%
3,"5′-ACGCTATGGTTCCAGGCCCGTTCGCATCCC-3′ (all phosphorothioate, sugars by position and methylation of C not given here) [SEQ ID NO:725, phosphorothioate antisense oligonucleotide, positions 646-675 of hTRT]",50%-90%
4,"5′-GCGCA GCGTGCCAGCAGGTGAACCAGCACG-3′ (antisense GCGCAGCGTGCCAGCAGGTGAACCAGCACG; all phosphorothioate, sugars by position and methylation of C not given here) [SEQ ID NO:723, phosphorothioate antisense oligonucleotide, positions 496-525 of hTRT]",50%-90%
